# Source: PubChem BioAssay AID1259254 (NCATS, 2017)
# Aim: 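Finding genes that stop cells copying their DNA twice in one cycle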 (primary screen)
# Cell system: human HCT116 colorectal cancer cells
# Reagents: single siRNA against human genes
# Time to read-out: 3 days
# Measurement: 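Imaged Hoechst DNA stain sorts each cell into a cycle phase by DNA amount; per plate, G2 fraction set to 0% for non-targeting and 100% for GMNN siRNA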
# Direction: G2 robust z-score: higher = more G2 cells, more excess DNA replication
# Call rule: 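An siRNA counts as active if its G2 robust z-score lies at least 5 MADs above the screen median; here such calls match roughly 38% of GMNN control or more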
# This is an unselected part of about 59,000 deposited reagents. In the full data, about 1,550 (2.6%) got an active call. 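G2 share is only a proxy for re-replication; each gene was hit by three separate siRNAs, and active genes were retested.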 Not all columns of the deposit are shown. The record does not give: the amount of reagent.
target gene,PubChem SID,G2 robust z-score,activity call
HRH1,SID160731088,0.994,inactive
HRH1,SID160775310,4.61,inactive
HRH1,SID160775311,3.93,inactive
MAL,SID160776928,-0.4,inactive
MAL,SID160776929,0.516,inactive
MAL,SID160776930,0.669,inactive
GRIK3,SID160774378,1.92,inactive
GRIK3,SID160774388,-0.845,inactive
GRIK3,SID160774400,1.1,inactive
DOLK,SID160731937,-1.32,inactive
DOLK,SID160731944,-0.192,inactive
DOLK,SID160731950,1.02,inactive
C6orf47,SID160746754,-1.07,inactive
C6orf47,SID160746755,0.401,inactive
C6orf47,SID160746756,2.04,inactive
VWA7,SID160750505,5.62,active
VWA7,SID160750506,-0.914,inactive
VWA7,SID160750507,4.18,inactive
SLC8B1,SID160731939,-0.104,inactive
SLC8B1,SID160749985,-0.704,inactive
SLC8B1,SID160749986,-1.32,inactive
LINC01545,SID160771136,1.31,inactive
LINC01545,SID160771137,2.93,inactive
LINC01545,SID160771138,-0.678,inactive
TMEM201,SID160724919,-0.688,inactive
TMEM201,SID160760772,-0.0572,inactive
TMEM201,SID160760773,0.612,inactive
SVEP1,SID160749912,0.887,inactive
SVEP1,SID160749913,-0.157,inactive
SVEP1,SID160749914,0.755,inactive
CLN6,SID160742667,-0.164,inactive
CLN6,SID160742668,0.941,inactive
CLN6,SID160742669,-0.308,inactive
ALOX15,SID160716748,-1.08,inactive
ALOX15,SID160716757,-0.953,inactive
ALOX15,SID160716768,-1.08,inactive
DPH2,SID160755948,0.546,inactive
DPH2,SID160755959,0.354,inactive
DPH2,SID160755968,0.308,inactive
HBQ1,SID160723844,-0.965,inactive
HBQ1,SID160723845,-1.64,inactive
HBQ1,SID160723846,-0.688,inactive
CLVS2,SID160757373,-0.57,inactive
CLVS2,SID160757374,0.52,inactive
CLVS2,SID160757375,-0.384,inactive
GSDME,SID160753970,-0.0908,inactive
GSDME,SID160753979,0.19,inactive
GSDME,SID160753990,-1.27,inactive
